Measurements reported in patent publication US10544186B2, “Process for the synthesis of amide bonds with the aid of novel catalysts” (Merck Patent GmbH, priority 2016, dated 2020).

Legend:
[1] = Activation of Z-Aib-OH by the amide linking reagents (NMR conversion to active ester); settings: THF, TMP; for acceleration of the activation of the acid compared with the BF4/PF6 analogue: Z-Aib-OH
[2] = Synthesis of Ac-Phe-Ala-OMe: conversion and degree of epimerisation by 1H NMR; settings: THF, TMP

## CN(C)C(On1nnc2ccccc2c1=O)=[N+](C)C [drawing 8]
[1]; 4 minutes
  Conversion, % for X- = BF4-: 6%
  Conversion, % for X- = [(C2F5)3PF3]-: 90%
[1]; 20 minutes
  Conversion, % for X- = BF4-: 36%
  Conversion, % for X- = [(C2F5)3PF3]-: 95%
[1]; 40 minutes
  Conversion, % for X- = BF4-: 62%
  Conversion, % for X- = [(C2F5)3PF3]-: 99%

## CN(C)C(Oc1c(F)c(F)c(F)c(F)c1F)=[N+](C)C [drawing 10]
[1]; 4 minutes
  Conversion, % for X- = PF6-: 52%
  Conversion, % for X- = [(C2F5)3PF3]-: 91%
[1]; 20 minutes
  Conversion, % for X- = PF6-: 80%
  Conversion, % for X- = [(C2F5)3PF3]-: 95%
[1]; 40 minutes
  Conversion, % for X- = PF6-: 87%
  Conversion, % for X- = [(C2F5)3PF3]-: 97%

## CN(C)C(Sc1cccc[n+]1[O-])=[N+](C)C [drawing 11]
[1]; 4 minutes
  Conversion, % for X- = PF6-: 3.7%
  Conversion, % for X- = [(C2F5)3PF3]-: 8%
[1]; 20 minutes
  Conversion, % for X- = PF6-: 3.7%
  Conversion, % for X- = [(C2F5)3PF3]-: 15%
[1]; 40 minutes
  Conversion, % for X- = PF6-: 4.0%
  Conversion, % for X- = [(C2F5)3PF3]-: 21%

## CN(C)C(n1n[n+]([O-])c2ccccc21)=[N+](C)C [drawing 12]
[1]; 4 minutes
  Conversion, % for X- = PF6-: 3%
  Conversion, % for X- = [(C2F5)3PF3]-: 79%
[1]; 20 minutes
  Conversion, % for X- = PF6-: 2%
  Conversion, % for X- = [(C2F5)3PF3]-: 89%
[1]; 40 minutes
  Conversion, % for X- = PF6-: 4%
  Conversion, % for X- = [(C2F5)3PF3]-: 95%

## [O-][n+]1nn(C(N2CCCC2)=[N+]2CCCC2)c2ccccc21 [drawing 13]
[1]; 4 minutes
  Conversion, % for X- = PF6-: 11%
  Conversion, % for X- = [(C2F5)3PF3]-: 87%
[1]; 20 minutes
  Conversion, % for X- = PF6-: 21%
  Conversion, % for X- = [(C2F5)3PF3]-: 97%
[1]; 40 minutes
  Conversion, % for X- = PF6-: 24%
  Conversion, % for X- = [(C2F5)3PF3]-: 97%

## CN(C)C(n1n[n+]([O-])c2ncccc21)=[N+](C)C [drawing 14]
[1]; 4 minutes
  Conversion, % for X- = PF6-: 0%
  Conversion, % for X- = [(C2F5)3PF3]-: 100 100 100%
[1]; 20 minutes
  Conversion, % for X- = PF6-: 0%
  Conversion, % for X- = [(C2F5)3PF3]-: 100 100 100%
[1]; 40 minutes
  Conversion, % for X- = PF6-: 6%
  Conversion, % for X- = [(C2F5)3PF3]-: 100 100 100%

## CN(C)[P+](On1nnc2ccccc21)(N(C)C)N(C)C [drawing 15]
[1]; 4 minutes
  Conversion, % for X- = PF6-: 7%
  Conversion, % for X- = [(C2F5)3PF3]-: 28%
[1]; 20 minutes
  Conversion, % for X- = PF6-: 22%
  Conversion, % for X- = [(C2F5)3PF3]-: 64%
[1]; 40 minutes
  Conversion, % for X- = PF6-: 43%
  Conversion, % for X- = [(C2F5)3PF3]-: 76%

## c1cnc2c(c1)nnn2O[P+](N1CCCC1)(N1CCCC1)N1CCCC1 [drawing 17]
[1]; 4 minutes
  Conversion, % for X- = PF6-: 62%
  Conversion, % for X- = [(C2F5)3PF3]-: 71%
[1]; 20 minutes
  Conversion, % for X- = PF6-: 89%
  Conversion, % for X- = [(C2F5)3PF3]-: 90%
[1]; 40 minutes
  Conversion, % for X- = PF6-: 93%
  Conversion, % for X- = [(C2F5)3PF3]-: 93%

## CN(C)C(On1nnc2ccccc2c1=O)=[N+](C)C [drawing 19]
[2]; 5 minutes
  Conversion, % for X- = BF4-: 74%
  Conversion, % for X- = [(C2F5)3PF3]-: 100 100 100%
[2]; 10 minutes
  Conversion, % for X- = BF4-: 89%
  Conversion, % for X- = [(C2F5)3PF3]-: 100 100 100%
[2]; 15 minutes
  Conversion, % for X- = BF4-: 94%
  Conversion, % for X- = [(C2F5)3PF3]-: 100 100 100%

## CN(C)C(Oc1c(F)c(F)c(F)c(F)c1F)=[N+](C)C [drawing 21]
[2]; 5 minutes
  Conversion, % for X- = PF6-: 32%
  Conversion, % for X- = [(C2F5)3PF3]-: 44%
[2]; 10 minutes
  Conversion, % for X- = PF6-: 55%
  Conversion, % for X- = [(C2F5)3PF3]-: 63%
[2]; 15 minutes
  Conversion, % for X- = PF6-: 68%
  Conversion, % for X- = [(C2F5)3PF3]-: 73%

## CN(C)C(Sc1cccc[n+]1[O-])=[N+](C)C [drawing 22]
[2]; 5 minutes
  Conversion, % for X- = PF6-: 0%
  Conversion, % for X- = [(C2F5)3PF3]-: 5%
[2]; 10 minutes
  Conversion, % for X- = PF6-: 1.7%
  Conversion, % for X- = [(C2F5)3PF3]-: 13%
[2]; 15 minutes
  Conversion, % for X- = PF6-: 2%
  Conversion, % for X- = [(C2F5)3PF3]-: 19%

## CN(C)C(n1n[n+]([O-])c2ccccc21)=[N+](C)C [drawing 23]
[2]; 5 minutes
  Conversion, % for X- = PF6-: 5.3%
  Conversion, % for X- = [(C2F5)3PF3]-: 93%
[2]; 10 minutes
  Conversion, % for X- = PF6-: 6%
  Conversion, % for X- = [(C2F5)3PF3]-: 100%
[2]; 15 minutes
  Conversion, % for X- = PF6-: 6.3%
  Conversion, % for X- = [(C2F5)3PF3]-: 100%

## [O-][n+]1nn(C(N2CCCC2)=[N+]2CCCC2)c2ccccc21 [drawing 24]
[2]; 5 minutes
  Conversion, % for X- = PF6-: 49%
  Conversion, % for X- = [(C2F5)3PF3]-: 100 100 100%
[2]; 10 minutes
  Conversion, % for X- = PF6-: 69%
  Conversion, % for X- = [(C2F5)3PF3]-: 100 100 100%
[2]; 15 minutes
  Conversion, % for X- = PF6-: 76%
  Conversion, % for X- = [(C2F5)3PF3]-: 100 100 100%

## CN(C)C(n1n[n+]([O-])c2ncccc21)=[N+](C)C [drawing 25]
[2]; 5 minutes
  Conversion, % for X- = PF6-: 58%
  Conversion, % for X- = [(C2F5)3PF3]-: 100 100 100%
[2]; 10 minutes
  Conversion, % for X- = PF6-: 69%
  Conversion, % for X- = [(C2F5)3PF3]-: 100 100 100%
[2]; 15 minutes
  Conversion, % for X- = PF6-: 76%
  Conversion, % for X- = [(C2F5)3PF3]-: 100 100 100%

## CN(C)[P+](On1nnc2ccccc21)(N(C)C)N(C)C [drawing 26]
[2]; 5 minutes
  Conversion, % for X- = PF6-: 44%
  Conversion, % for X- = [(C2F5)3PF3]-: 67%
[2]; 10 minutes
  Conversion, % for X- = PF6-: 59%
  Conversion, % for X- = [(C2F5)3PF3]-: 77%
[2]; 15 minutes
  Conversion, % for X- = PF6-: 68%
  Conversion, % for X- = [(C2F5)3PF3]-: 80%

## c1cnc2c(c1)nnn2O[P+](N1CCCC1)(N1CCCC1)N1CCCC1 [drawing 28]
[2]; 5 minutes
  Conversion, % for X- = PF6-: 90%
  Conversion, % for X- = [(C2F5)3PF3]-: 92%
[2]; 10 minutes
  Conversion, % for X- = PF6-: 97%
  Conversion, % for X- = [(C2F5)3PF3]-: 100%
[2]; 15 minutes
  Conversion, % for X- = PF6-: 100%
  Conversion, % for X- = [(C2F5)3PF3]-: 100%

## CN(C)C(On1nnc2ccccc2c1=O)=[N+](C)C [drawing 29]
[2]; 5 minutes
  Epimerisation, % for X- = BF4-: 0%
  Epimerisation, % for X- = [(C2F5)3PF3]-: 0%
[2]; 10 minutes
  Epimerisation, % for X- = BF4-: 0%
  Epimerisation, % for X- = [(C2F5)3PF3]-: 0%
[2]; 15 minutes
  Epimerisation, % for X- = BF4-: 0.6%
  Epimerisation, % for X- = [(C2F5)3PF3]-: 0.4%

## CN(C)C(Oc1c(F)c(F)c(F)c(F)c1F)=[N+](C)C [drawing 31]
[2]; 5 minutes
  Epimerisation, % for X- = PF6-: 3.9%
  Epimerisation, % for X- = [(C2F5)3PF3]-: 6.2%
[2]; 10 minutes
  Epimerisation, % for X- = PF6-: 6.0%
  Epimerisation, % for X- = [(C2F5)3PF3]-: 9.0%
[2]; 15 minutes
  Epimerisation, % for X- = PF6-: 8.1%
  Epimerisation, % for X- = [(C2F5)3PF3]-: 9.9%

## CN(C)C(Sc1cccc[n+]1[O-])=[N+](C)C [drawing 32]
[2]; 10 minutes
  Epimerisation, % for X- = [(C2F5)3PF3]-: b 9.1 9.1%
[2]; 15 minutes
  Epimerisation, % for X- = [(C2F5)3PF3]-: b 9.1 9.1%

## CN(C)C(n1n[n+]([O-])c2ccccc21)=[N+](C)C [drawing 33]
[2]; 5 minutes
  Epimerisation, % for X- = [(C2F5)3PF3]-: 3.1%
[2]; 10 minutes
  Epimerisation, % for X- = [(C2F5)3PF3]-: 2.8%
[2]; 15 minutes
  Epimerisation, % for X- = [(C2F5)3PF3]-: 3.2%

## [O-][n+]1nn(C(N2CCCC2)=[N+]2CCCC2)c2ccccc21 [drawing 34]
[2]; 5 minutes
  Epimerisation, % for X- = PF6-: 8.2%
  Epimerisation, % for X- = [(C2F5)3PF3]-: 3.3%
[2]; 10 minutes
  Epimerisation, % for X- = PF6-: 7.3%
  Epimerisation, % for X- = [(C2F5)3PF3]-: 1.8%
[2]; 15 minutes
  Epimerisation, % for X- = PF6-: 5.0%
  Epimerisation, % for X- = [(C2F5)3PF3]-: 2.4%

## CN(C)C(n1n[n+]([O-])c2ncccc21)=[N+](C)C [drawing 35]
[2]; 5 minutes
  Epimerisation, % for X- = PF6-: 0%
  Epimerisation, % for X- = [(C2F5)3PF3]-: 1.6%
[2]; 10 minutes
  Epimerisation, % for X- = PF6-: 1.0%
  Epimerisation, % for X- = [(C2F5)3PF3]-: 1.2%
[2]; 15 minutes
  Epimerisation, % for X- = PF6-: 1.0%
  Epimerisation, % for X- = [(C2F5)3PF3]-: 1.4%

## CN(C)[P+](On1nnc2ccccc21)(N(C)C)N(C)C [drawing 36]
[2]; 5 minutes
  Epimerisation, % for X- = PF6-: 3.5%
  Epimerisation, % for X- = [(C2F5)3PF3]-: 1.9%
[2]; 10 minutes
  Epimerisation, % for X- = PF6-: 3.9%
  Epimerisation, % for X- = [(C2F5)3PF3]-: 3.0%
[2]; 15 minutes
  Epimerisation, % for X- = PF6-: 4.2%
  Epimerisation, % for X- = [(C2F5)3PF3]-: 3.4%

## c1cnc2c(c1)nnn2O[P+](N1CCCC1)(N1CCCC1)N1CCCC1 [drawing 38]
[2]; 5 minutes
  Epimerisation, % for X- = PF6-: 0.7%
  Epimerisation, % for X- = [(C2F5)3PF3]-: 0.9%
[2]; 10 minutes
  Epimerisation, % for X- = PF6-: 0.7%
  Epimerisation, % for X- = [(C2F5)3PF3]-: 0.6%
[2]; 15 minutes
  Epimerisation, % for X- = PF6-: 0.8%
  Epimerisation, % for X- = [(C2F5)3PF3]-: 1.0%

## (7-Azabenzotriazol-1-yloxy)tris(pyrrolidino)phosphonium tris(pentafluoroethyl)trifluorophosphate [PyAOP-FAP]
[1]
  acceleration of the activation of the acid compared with the BF4/PF6 analogue: less pronounced

## (Benzotriazol-1-yloxy)tris(pyrrolidino)phosphonium tris(pentafluoroethyl)trifluorophosphate [PyBOP-FAP]
[1]
  acceleration of the activation of the acid compared with the BF4/PF6 analogue: less pronounced
